In publication PMC4229207:
Results are given in words; binding and its absence hold for the method and conditions named. In cells and extracts the contact can be indirect. Some binding calls cover weakened binding; strength is not graded here. Where a sequence is shown, tags or fusion partners need not be part of it.

Molecular target: T1, NA14 (nuclear autoantigen 1; SSNA1) (human (endogenous in HeLa)) (UniProt O43805)
T1 sequence: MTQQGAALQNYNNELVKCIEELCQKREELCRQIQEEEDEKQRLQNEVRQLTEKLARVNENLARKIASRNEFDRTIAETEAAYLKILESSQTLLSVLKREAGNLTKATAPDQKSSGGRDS
Assay: co-IP; HeLa cells transfected with Myc-spastin M1 or M87; extracts in 0.5% Triton X-100/PBS, immunoprecipitated with rabbit polyclonal anti-SSNA1 (NA14) antibodies or non-immune IgG at 4°C, Protein A/G PLUS-agarose beads, immunoblotted with Myc-epitope antibodies

B1: Myc-spastin M87 (protein, UniProt Q9UBP0-1 87-616)
chain: MAAKRSSGAAPAPASASAPAPVPGGEAERVRVFHKQAFEYISIALRIDEDEKAGQKEQAVEWYKKGIEELEKGIAVIVTGQGEQCERARRLQAKMMTNLVMAKDRLQLLEKMQPVLPFSKSQTDVYNDSTNLACRNGHLQSESGAVPKRKDPLTHTSNSLPRSKTVMKTGSAGLSGHHRAPSYSGLSMVSGVKQGSGPAPTTHKGTPKTNRTNKPSTPTTATRKKKDLKNFRNVDSNLANLIMNEIVDNGTAVKFDDIAGQDLAKQALQEIVILPSLRPELFTGLRAPARGLLLFGPPGNGKTMLAKAVAAESNATFFNISAASLTSKYVGEGEKLVRALFAVARELQPSIIFIDEVDSLLCERREGEHDASRRLKTEFLIEFDGVQSAGDDRVLVMGATNRPQELDEAVLRRFIKRVYVSLPNEETRLLLLKNLLCKQGSPLTQKELAQLARMTDGYSGSDLTALAKDAALGPIRELKPEQVKNMSASEMRNIRLSDFTESLKKIKRSVSPQTLEAYIRWNKDFGDTTV
B1 was tested. Which binding did it give?
The binding was “binds”.

B2: Myc-spastin M1 (protein, UniProt Q9UBP0-1 1-616)
chain: MNSPGGRGKKKGSGGASNPVPPRPPPPCLAPAPPAAGPAPPPESPHKRNLYYFSYPLFVGFALLRLVAFHLGLLFVWLCQRFSRALMAAKRSSGAAPAPASASAPAPVPGGEAERVRVFHKQAFEYISIALRIDEDEKAGQKEQAVEWYKKGIEELEKGIAVIVTGQGEQCERARRLQAKMMTNLVMAKDRLQLLEKMQPVLPFSKSQTDVYNDSTNLACRNGHLQSESGAVPKRKDPLTHTSNSLPRSKTVMKTGSAGLSGHHRAPSYSGLSMVSGVKQGSGPAPTTHKGTPKTNRTNKPSTPTTATRKKKDLKNFRNVDSNLANLIMNEIVDNGTAVKFDDIAGQDLAKQALQEIVILPSLRPELFTGLRAPARGLLLFGPPGNGKTMLAKAVAAESNATFFNISAASLTSKYVGEGEKLVRALFAVARELQPSIIFIDEVDSLLCERREGEHDASRRLKTEFLIEFDGVQSAGDDRVLVMGATNRPQELDEAVLRRFIKRVYVSLPNEETRLLLLKNLLCKQGSPLTQKELAQLARMTDGYSGSDLTALAKDAALGPIRELKPEQVKNMSASEMRNIRLSDFTESLKKIKRSVSPQTLEAYIRWNKDFGDTTV
With B2 as the binder, how does the binding read?
The binding was “no binding”.
